Data reported in US11040052B2, “Methods and pharmaceutical compositions for modulating autophagy in a subject in need thereof” (INSERM (INSTITUT NATIONAL DE LA SANTE ET DE LA RECHERCHE …, priority 2013, dated 2021).
At least one compound was matched to its structure with a doubt left.

Key:
cellular ATP levels = assay: Cellular ATP levels; assay type: cell-based
AcCoA levels = assay: Targeted analysis of AcCoA levels in cultured cells (HPLC-MS); assay type: cell-based, human; conditions: nutrient-depleted (starved) cells in vitro
Protocol: Cells were trypsinized, pelleted at 1000 rpm for 4 min, washed with PBS and pelleted again at 1000 rpm for 4 min. Cells were then resuspended in 5 ml of ice-cold hyposmotic buffer and keep on ice for 5 min. Cells were broken to release nuclei using a pre-chilled Dounce homogenizer (20 strokes with a tight pestle) and then were then centrifuged at 228 g.
For in vitro experiments, cell pellets were resuspended in 300 μL of water with HEPES and EDTA (pH 7.4) at 1 mM containing internal standard acetylcoenzyme A (2-C13) at 1 mg/L, vortexed and heated at 100° C. for 1 min. Samples were incubated in liquid nitrogen for 1 min and thawed at room temperature two times. They were let for 1 h at −20° C. and centrifuged at 4° C. during 15 min at 13,000 g. Supernatants were transferred in HPLC vials and injected in HPLC/MS or kept at −80° C. until injection. […]
Targeted analyses were performed on Rapid Resolution Liquid Chromatography (RRLC) 1200SL system (Agilent Technologies, Waldbronn, Germany) coupled to a Triple Quadruple QQQ 6410 mass spectrometer (Agilent Technologies). […] Two transitions were recorded for each compound; • AcCoA 810>303 CE (collision energy) 28V; fragmentor 180V • 810>428 CE 20V • AcCoA 2-C13 812>305 CE 28V; fragmentor 180V • 812>428 CE 24V for 20 min at 4C to pellet nuclei and other fragments. […]

[1] = chronic treatment; cited from earlier work
[2] = test system: autophagy in mice tissues; assay: Autophagy induction in tissues of fed mice (LC3 lipidation, p62, GFP-LC3 dots); assay type: in vivo; conditions: fed mice
Protocol: C57BL/6 mice (Charles River Laboratory, Lentilly, France) were bred and maintained according to both the FELASA and the Animal Experimental Ethics Committee Guidelines (Val de Marne, France). Mice were housed in a temperature-controlled environment with 12 h light/dark cycles and received food and water ad libitum. For HC-related experiments, mice were injected intraperitoneally with a single 100 mg/kg dose and 6 h later were sacrificed and tissues were immediately frozen in liquid nitrogen. For DCA- and DMKG-related experiments, mice were subjected to 24 h starvation and injected intraperitoneally each 8 h with a 100 mg/kg of either DCA or DMKG solution prepared in PBS. After 24 h of starvation, mice were sacrificed and tissues were immediately frozen in liquid nitrogen after extraction and homogenized two cycles for 20 s at 5,500 rpm using Precellys 24 tissue homogenator (Bertin Technologies, Montigny-le-Bretonneux, France) in a 20 mM Tris buffer (pH 7.4) containing 150 mM NaCl, 1% Triton X-100, 10 mM EDTA and Complete® protease inhibitor cocktail (Roche Applied Science). Tissue extracts were then centrifuged at 12,000 g at 4° C. and supernatants were collected. Protein concentration in the supernatants was evaluated by the bicinchoninic acid technique (BCA protein assay kit, Pierce Biotechnology, Rockford, Ill.). For hydroxycitrate-related weight-loss experiments, autophagy-deficient Atg4b^−/− mice were used. Atg4b^−/− mice have been previously described (Mariño et al., 2010). For HC-, spermidine-, and resveratrol-related experiments (tumour growth) mice were intraperitoneally injected with respectively 100 mg/kg, 50 mg/kg and 100 mg/kg doses at day 8 and day 9. At day 9, mice were intraperitoneally injected with 2 mg/kg single dose of Mitoxanthrone. For starvation related experiment (tumour growth) mice were treated as previously described (Fabrizio et. al., 2010).
To avoid post-mortem autophagy induction, dead mice were immediately perfused with 4% paraformaldehyde (w:v in PBS, pH 7.4). Tissues were then harvested and further fixed with the same solution for at least 4 h, followed by treatment with 15% sucrose (w:v in PBS) for 4 h and with 30% sucrose (w:v in PBS) overnight. Tissue samples were embedded in Tissue-Tek OCT compound (Sakura Finetechnical Co. Ltd., Tokyo, Japan) and stored at −70° C. […] In each organ, the number of GFP-LC3 dots was counted in five independent visual fields from at least five mice using a TCS SP2 confocal fluorescence microscope (Leica Microsystems GmbH).
Six weeks old female C57BL/6, Balb/c and nude athymic mice (Harlan Laboratory, Gannat, France) were bred and maintained according to both the FELASA and the Animal Experimental Inserm Ethics Committee Guidelines (project: 2012-69). […] Tumor size was measured every two days. […]

## CCCC(=O)O [butyrate]
Cellular ATP levels
  cellular ATP levels in starved cells: induced a decrease in cellular ATP
AcCoA levels
  AcCoA levels in starved cells: maintained high cytosolic AcCoA

## CO[C@H]1C[C@@H]2CC[C@@H](C)[C@@](O)(O2)C(=O)C(=O)N2CCCC[C@H]2C(=O)O[C@H]([C@H](C)C[C@@H]2CC[C@@H](O)[C@H](OC)C2)CC(=O)[C@H](C)/C=C(\C)[C@@H](O)[C@@H](OC)C(=O)[C@H](C)C[C@H](C)/C=C/C=C/C=C/1C [rapamycin]
[1]
  health and life spans of mice: extends the health and life spans of mice
[2]
  autophagy in vivo (LC3 lipidation, p62, GFP-LC3): elicits autophagy in mice muscle after 6 hours
